The assay is described as follows: qHTS Assay for Lipid Storage Modulators in Drosophila S3 Cells.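 For cell number change: cells counted by Cell Tracker Red CMTPX staining in the red channel.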 The following applies: BODIPY lipid droplet fluorescence, 18-24 h; for cell number change: measured here: cell count max response, cells fed with added oleic acid. A digest of the protocol:
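Drosophila S3 cells loaded with oleic acid (400 uM, as added) and compounds at several concentrations; lipid droplets imaged by 488-nm laser-scanning cytometry, 500–530 nm intensity and object ratio to cell channel. Percent activity normalized to 20 uM Triacsin C.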

[1] abbreviates: measured here: lipid fluorescence (Fed channel) AC50, cells fed with added oleic acid.
Where [2] appears, read: measured here: cell number channel AC50, cells fed with added oleic acid.

Each structure is given as a SMILES string. The list shows a part of the results. Shown are side measurements of this screen, not its main read-out; they come without a call. Compounds called inactive in the main read-out are mostly missing here. The note in brackets gives the kind of curve behind each potency; many fits are weak.

The AC50 is the concentration at which the activity in the assay is half-maximal. Low readings indicate activity at low concentration, high ones activity only at high concentration.

In the case of `O=C(COC(=O)c1ccc(S(=O)(=O)N2CCCCC2)cc1)NCc1ccc(F)cc1`, the cell number change amounted to 15.5%.

On to `O=C(NNS(=O)(=O)c1ccc(Br)cc1)C1CCCCC1`, for which the cell number change is 17.9%. Besides, under setting [1], the AC50 was 1.84 µM [falling, partial curve].

As for `COc1ccccc1/C=N/NC(=O)c1ccccc1NS(=O)(=O)c1ccc(C)cc1`, the cell number change came to 69.5%. Besides, the AC50 under setting [2] is 16.4 µM [rising, single point]. Moreover, the AC50 under setting [1] is 18.4 µM [rising, single point].

On to `CS(=O)(=O)Oc1ccc2c(c1)O/C(=C\c1cccc([N+](=O)[O-])c1)C2=O`, for which the cell number change is -31.8%. In addition, under setting [2], the AC50 was 20.6 µM [falling, single point]. Moreover, the AC50 under setting [1] is 29.1 µM [falling, single point].

With `CN(Cc1ccccc1)C(=O)c1nn2cccnc2c1Cl`, under setting [1], the AC50 is 0.206 µM [rising, full curve, poor fit].

In the case of `CCC(=O)NC(=S)Nc1ccc(NC(=O)c2cccnc2)cc1`, the cell number change was -30.8%. For the same molecule, under setting [2], the half-maximal activity concentration (AC50) is 23.1 µM [falling, single point]. The AC50 under setting [1] is 14.6 µM [falling, partial curve].

For the molecule `O=C(CSc1ccccc1)Nc1ccc(S(=O)(=O)NCC2CCCO2)cc1` (stereo not drawn), the cell number change was -15.6%.

Take `O=C(O)c1cccc(NS(=O)(=O)c2cccc3nsnc23)c1`: the cell number change was 1.26%. Besides, under setting [1], the concentration at half-maximal activity (AC50) was 29.1 µM [falling, single point].

For the molecule `Cc1ccc(Cl)c(NC(=O)COC(=O)C2CCC2)c1Cl`, the cell number change was -1%.

For the molecule `O=C(COc1ccccc1[N+](=O)[O-])Nc1ccc2c(c1)OCO2`, the cell number change was -17.5%.

As for `Cc1ccc(S(=O)(=O)c2c(C)nn(-c3ccccc3)c2OC(=O)c2ccco2)cc1`, the cell number change is -29.8%. Moreover, the AC50 under setting [2] was 0.00461 µM [falling, full curve, poor fit].

Turning to `Nc1cc(OC(=O)c2ccc(F)cc2)nn1S(=O)(=O)c1ccc(F)cc1`, the cell number change was 18.5%. In addition, under setting [1], the AC50 was 2.91 µM [rising, single point].

With `CC1=CC(c2ccccc2)n2nc(NC(=O)CCCC(=O)O)nc2N1` (stereo not drawn), the cell number change is 90.1%. Also, the AC50 under setting [2] is 20.6 µM [rising, partial curve].

Turning to `Cc1ccc(NC(=O)COC(=O)CN2C(=O)NC(C)(C)C2=O)cc1S(=O)(=O)N1CCOCC1`, the cell number change was 73.2%. Moreover, under setting [2], the AC50 was 20.6 µM [rising, single point].

For `Cc1ccc(S(=O)(=O)N(C)c2ccc(C(=O)N3CCC(C(N)=O)CC3)cc2)cc1`, under setting [1], the AC50 is 3.26 µM [falling, single point].

As for `CC(Nc1nc(-c2ccccc2O)nc2ccccc12)c1ccccc1` (stereo not drawn), the cell number change turned out to be 15.2%. Further, the AC50 under setting [2] was 3.66 µM [rising, single point]. In addition, the AC50 under setting [1] was 3.66 µM [rising, full curve].

As to `Cc1cc(C)n(CC(=O)c2ccccc2)c(=O)c1C#N`, the cell number change was -18.7%. For the same molecule, under setting [2], the AC50 is 0.13 µM [falling, full curve, poor fit]. Moreover, the AC50 under setting [1] was 29.1 µM [rising, single point].

On to `CCOC(=O)C1CCCN(C(=O)C2CCN(S(=O)(=O)c3cnc[nH]3)CC2)C1` (stereo not drawn), for which the cell number change is -22.2%. Further, the half-maximal activity concentration (AC50) under setting [1] was 23.1 µM [falling, partial curve].

In the case of `CC1CCCN(CC(=O)Nc2cc(Cl)ccc2Oc2ccccc2)C1` (stereo not drawn), the cell number change was 7.14%.

On to `CC1=C(C(=O)OC2CCCCC2)C(c2cccnc2)n2nnnc2N1` (stereo not drawn), for which the cell number change is -50.5%. Further, the half-maximal activity concentration (AC50) under setting [2] is 20.6 µM [falling, single point]. The AC50 under setting [1] is 18.4 µM [falling, single point].

`CC1(c2ccc3ccccc3c2)NC(=O)N(CC(=O)N2CCN(Cc3ccccc3)CC2)C1=O` (stereo not drawn): the cell number change was -31.6%. The AC50 under setting [2] was 13 µM [falling, partial curve].

Regarding `CCc1n[nH]c2c1/C(=N\O)CC(c1ccccc1)C2` (stereo not drawn), the cell number change was -6.56%. The AC50 under setting [1] was 0.00517 µM [rising, full curve, poor fit].

For the molecule `O=C(Nc1ccc2c(c1)OCCO2)C1CCCN(c2ncccn2)C1` (stereo not drawn), the cell number change worked out at 20.8%. In addition, the AC50 under setting [1] was 0.461 µM [rising, partial curve].

As for `NS(=O)(=O)c1ccc(NC(=O)COC(=O)/C=C/c2ccc([N+](=O)[O-])cc2)cc1`, the cell number change was -35.8%. Also, the AC50 under setting [2] was 6.51 µM [falling, full curve, poor fit]. In addition, under setting [1], the AC50 is 4.61 µM [falling, full curve].

Regarding `COc1cccc(N(CC(=O)NC(C)(C)C)C(=O)C2CSC(=O)C2)c1` (stereo not drawn), the cell number change came to 15.5%.

Take `Cc1ccc(C(=O)C2CCN(S(=O)(=O)c3ccc(C(=O)O)cc3)CC2)cc1`: the cell number change worked out at 15.4%. For the same molecule, the concentration at half-maximal activity (AC50) under setting [2] is 0.13 µM [rising, full curve, poor fit].

In the case of `Cc1ccc(Nc2nc(N)nc(CSC(=S)N3CCOCC3)n2)cc1`, the cell number change was -0.5%. Besides, the concentration at half-maximal activity (AC50) under setting [1] is 0.0326 µM [falling, full curve, poor fit].

`CCOC(=O)C(=O)N1CCC(Cc2ccccc2)CC1`: the cell number change is -11%. Under setting [2], the AC50 was 1.64 µM [rising, partial curve, poor fit].

Regarding `CCC(=O)NNc1ncnc2c1cnn2C`, the cell number change is -65.1%. The AC50 under setting [2] was 25.9 µM [falling, single point]. In addition, the AC50 under setting [1] is 29.1 µM [falling, single point].

As to `COC(=O)c1ccc(S(=O)(=O)N(Cc2cc3cc4c(cc3[nH]c2=O)OCO4)C2CCCCC2)cc1`, the AC50 under setting [1] is 29.1 µM [rising, single point].

With `COc1ccc(S(=O)(=O)N2CCCCC2)cc1NC(=O)c1c(F)cccc1Cl`, the cell number change was 34.8%. Also, the AC50 under setting [2] was 16.4 µM [rising, single point]. For the same molecule, the AC50 under setting [1] was 20.6 µM [falling, single point].

Turning to `CC(=O)c1ccc(Oc2nc(-c3cccnc3)nc3ccccc23)cc1`, the cell number change was -6.85%. Also, the AC50 under setting [2] is 0.82 µM [rising, partial curve, poor fit]. Moreover, the AC50 under setting [1] was 0.92 µM [rising, full curve].

Turning to `C#CCNC(=O)C1=C[C@@H](c2ccc(C(F)(F)F)cc2)[C@H](CCCO)[C@@H](OCC)O1`, the cell number change was -18.9%. The AC50 under setting [1] was 4.11 µM [rising, single point].

Take `COc1ccc(CNC(=O)Nc2ccc3c(c2)N(C)C(=O)CS3)cc1`: the cell number change is -27.6%. Further, the AC50 under setting [1] is 29.1 µM [falling, single point].

`FC(F)(F)c1cccc(Cc2noc(CN3CCC(N4CCCCC4)CC3)n2)c1`: the cell number change is -7.26%. The AC50 under setting [1] was 2.06 µM [rising, single point].

As to `O=C(Nc1cc(C(F)(F)F)ccc1-n1cncn1)c1ccc(Cl)cc1`, the AC50 is 1.46 µM [rising, partial curve] under setting [2] and 1.3 µM [rising, partial curve] under setting [1].

Source of the values: PubChem BioAssay AID2685 (National Center for Advancing Translational Sciences (NCATS), 2010).
